Experimental data taken from publication PMC12404744.
Results are given in words; binding and its absence hold for the method and conditions named. Binding seen in cells or lysates may run through a third protein. Some binding calls cover weakened binding; strength is not graded here. Where a sequence is shown, tags or fusion partners need not be part of it.

Chains of the proteins cited; added tags and fusions are not shown.
UniProt P49792: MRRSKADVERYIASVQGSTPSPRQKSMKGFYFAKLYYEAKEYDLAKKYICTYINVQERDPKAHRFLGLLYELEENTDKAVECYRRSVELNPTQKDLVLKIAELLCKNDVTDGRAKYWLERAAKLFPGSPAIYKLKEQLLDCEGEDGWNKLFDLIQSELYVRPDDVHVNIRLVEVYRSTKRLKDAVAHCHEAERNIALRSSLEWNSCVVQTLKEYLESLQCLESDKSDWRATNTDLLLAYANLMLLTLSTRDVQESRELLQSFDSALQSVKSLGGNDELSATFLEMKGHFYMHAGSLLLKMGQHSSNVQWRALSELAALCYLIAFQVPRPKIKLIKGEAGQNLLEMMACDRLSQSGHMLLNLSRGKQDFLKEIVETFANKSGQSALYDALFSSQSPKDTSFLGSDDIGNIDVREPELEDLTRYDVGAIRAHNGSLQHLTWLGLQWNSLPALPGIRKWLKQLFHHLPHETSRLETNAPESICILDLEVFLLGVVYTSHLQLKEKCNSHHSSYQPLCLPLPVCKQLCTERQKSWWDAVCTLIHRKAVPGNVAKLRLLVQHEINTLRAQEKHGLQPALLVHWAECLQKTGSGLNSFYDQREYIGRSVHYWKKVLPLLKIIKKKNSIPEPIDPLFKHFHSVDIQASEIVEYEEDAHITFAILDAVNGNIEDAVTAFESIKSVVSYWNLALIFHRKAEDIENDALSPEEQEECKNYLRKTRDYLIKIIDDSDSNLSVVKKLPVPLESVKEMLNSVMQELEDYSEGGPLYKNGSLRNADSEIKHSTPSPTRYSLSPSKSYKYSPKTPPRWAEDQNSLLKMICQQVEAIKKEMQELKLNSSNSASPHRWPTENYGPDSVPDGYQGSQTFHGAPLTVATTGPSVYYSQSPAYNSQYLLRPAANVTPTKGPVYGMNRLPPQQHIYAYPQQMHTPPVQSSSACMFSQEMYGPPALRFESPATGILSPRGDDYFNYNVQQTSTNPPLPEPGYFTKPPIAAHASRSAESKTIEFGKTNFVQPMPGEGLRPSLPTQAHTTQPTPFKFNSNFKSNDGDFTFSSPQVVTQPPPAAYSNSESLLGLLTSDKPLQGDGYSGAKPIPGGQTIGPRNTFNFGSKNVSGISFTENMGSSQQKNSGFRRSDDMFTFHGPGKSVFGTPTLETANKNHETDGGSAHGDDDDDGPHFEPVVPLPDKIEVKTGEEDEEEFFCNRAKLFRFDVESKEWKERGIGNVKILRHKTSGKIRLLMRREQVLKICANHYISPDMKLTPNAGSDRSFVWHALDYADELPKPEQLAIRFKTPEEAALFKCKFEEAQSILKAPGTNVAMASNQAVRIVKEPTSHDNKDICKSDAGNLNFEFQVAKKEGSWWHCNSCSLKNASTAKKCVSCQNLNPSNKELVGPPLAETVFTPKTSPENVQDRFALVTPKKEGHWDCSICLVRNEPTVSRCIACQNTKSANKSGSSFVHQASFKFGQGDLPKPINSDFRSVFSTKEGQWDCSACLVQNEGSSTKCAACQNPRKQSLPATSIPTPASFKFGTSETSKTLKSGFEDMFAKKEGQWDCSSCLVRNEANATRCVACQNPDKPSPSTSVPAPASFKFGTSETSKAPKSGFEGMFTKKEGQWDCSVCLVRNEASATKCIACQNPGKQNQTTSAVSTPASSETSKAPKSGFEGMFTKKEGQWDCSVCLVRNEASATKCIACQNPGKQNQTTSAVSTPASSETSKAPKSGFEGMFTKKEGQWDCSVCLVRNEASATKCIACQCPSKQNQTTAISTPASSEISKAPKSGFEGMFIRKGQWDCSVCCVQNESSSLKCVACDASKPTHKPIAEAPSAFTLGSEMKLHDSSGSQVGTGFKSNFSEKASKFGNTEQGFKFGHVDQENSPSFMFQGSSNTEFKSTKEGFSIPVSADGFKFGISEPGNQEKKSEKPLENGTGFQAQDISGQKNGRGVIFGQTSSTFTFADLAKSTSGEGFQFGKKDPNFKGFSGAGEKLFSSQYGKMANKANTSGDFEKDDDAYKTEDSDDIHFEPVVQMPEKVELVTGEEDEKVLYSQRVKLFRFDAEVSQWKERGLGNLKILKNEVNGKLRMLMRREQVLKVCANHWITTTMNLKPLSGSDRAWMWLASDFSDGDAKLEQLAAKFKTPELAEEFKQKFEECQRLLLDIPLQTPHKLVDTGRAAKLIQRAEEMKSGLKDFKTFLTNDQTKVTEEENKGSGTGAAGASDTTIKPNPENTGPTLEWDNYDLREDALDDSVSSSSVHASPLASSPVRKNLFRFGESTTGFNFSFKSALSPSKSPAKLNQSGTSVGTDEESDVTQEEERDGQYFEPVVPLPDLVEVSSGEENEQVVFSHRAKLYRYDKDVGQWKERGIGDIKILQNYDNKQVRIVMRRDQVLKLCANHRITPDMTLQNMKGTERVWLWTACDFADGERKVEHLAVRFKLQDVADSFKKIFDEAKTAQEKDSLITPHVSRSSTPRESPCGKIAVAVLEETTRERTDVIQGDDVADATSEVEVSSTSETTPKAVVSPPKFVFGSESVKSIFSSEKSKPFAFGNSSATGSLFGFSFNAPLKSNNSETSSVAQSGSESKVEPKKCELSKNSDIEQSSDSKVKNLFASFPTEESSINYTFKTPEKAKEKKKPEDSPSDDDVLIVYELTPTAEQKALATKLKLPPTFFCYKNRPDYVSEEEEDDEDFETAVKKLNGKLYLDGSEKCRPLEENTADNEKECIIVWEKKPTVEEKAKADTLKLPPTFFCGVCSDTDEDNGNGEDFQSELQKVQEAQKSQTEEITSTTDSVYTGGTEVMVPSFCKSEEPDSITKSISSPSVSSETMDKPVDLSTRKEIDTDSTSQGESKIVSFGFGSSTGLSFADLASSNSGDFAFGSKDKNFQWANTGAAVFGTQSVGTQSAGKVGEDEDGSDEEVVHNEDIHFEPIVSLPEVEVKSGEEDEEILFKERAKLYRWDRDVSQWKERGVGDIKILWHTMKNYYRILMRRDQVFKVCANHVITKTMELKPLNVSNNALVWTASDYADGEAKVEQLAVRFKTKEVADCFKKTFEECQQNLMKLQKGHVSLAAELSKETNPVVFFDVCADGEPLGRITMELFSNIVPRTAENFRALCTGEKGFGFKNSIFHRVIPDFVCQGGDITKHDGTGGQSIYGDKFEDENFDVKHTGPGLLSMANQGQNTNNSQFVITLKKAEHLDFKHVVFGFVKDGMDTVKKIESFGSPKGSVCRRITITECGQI

Biological target: T1, FLAG-tagged WT nemo-like kinase (FLAG-NLK-WT) (UniProt Q9UBE8)
T1 sequence: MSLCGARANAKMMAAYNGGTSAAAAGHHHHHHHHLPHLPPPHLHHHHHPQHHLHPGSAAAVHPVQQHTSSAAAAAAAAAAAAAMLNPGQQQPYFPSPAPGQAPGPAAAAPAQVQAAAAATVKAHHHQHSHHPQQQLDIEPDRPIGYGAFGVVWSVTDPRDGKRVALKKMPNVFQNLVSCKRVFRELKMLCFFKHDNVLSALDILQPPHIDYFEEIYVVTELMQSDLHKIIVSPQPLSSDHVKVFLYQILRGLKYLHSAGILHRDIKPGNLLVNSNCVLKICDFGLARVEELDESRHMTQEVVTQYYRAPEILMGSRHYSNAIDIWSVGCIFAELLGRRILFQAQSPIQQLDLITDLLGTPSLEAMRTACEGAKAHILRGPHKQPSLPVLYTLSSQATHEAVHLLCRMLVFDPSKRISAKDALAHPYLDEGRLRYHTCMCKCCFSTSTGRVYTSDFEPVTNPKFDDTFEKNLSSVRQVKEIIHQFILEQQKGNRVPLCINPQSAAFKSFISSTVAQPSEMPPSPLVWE
Assay: co-IP; HEK293T cells transfected with empty vector or FLAG-NLK-WT, 48 h; lysis in PBS with 1 mM CaCl2, 0.5 mM MgCl2, 1% Triton X-100; 2 mg lysate with 1 ug of the indicated antibodies overnight at 4°C, protein G beads, 5 washes; Western blot

Substance: RanBP2 (from UniProt P49792 1-3224)
- binding: binds
